# Data published in the supplement of paper PMC12819154, “High-throughput peptide-centric local stability assay extends protein–ligand identification to membrane proteins, tissues and bacteria” (Nature Structural & Molecular Biology, 2025).
# Chains of the proteins cited; added tags and fusions are not shown. Lines headed by an entry give the natural chain unless they say otherwise; changes in a name come on top.
# UniProt Q9H000: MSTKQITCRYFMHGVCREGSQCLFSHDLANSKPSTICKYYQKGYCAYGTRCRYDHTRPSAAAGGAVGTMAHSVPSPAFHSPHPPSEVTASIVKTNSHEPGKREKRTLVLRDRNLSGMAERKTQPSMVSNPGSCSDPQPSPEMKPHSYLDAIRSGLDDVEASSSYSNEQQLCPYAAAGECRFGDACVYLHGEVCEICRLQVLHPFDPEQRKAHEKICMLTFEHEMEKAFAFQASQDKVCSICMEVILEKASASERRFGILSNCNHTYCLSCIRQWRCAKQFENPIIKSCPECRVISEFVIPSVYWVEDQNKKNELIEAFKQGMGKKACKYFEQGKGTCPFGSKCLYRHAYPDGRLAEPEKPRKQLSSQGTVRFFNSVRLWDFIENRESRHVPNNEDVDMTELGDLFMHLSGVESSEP
# UniProt Q9H2U2: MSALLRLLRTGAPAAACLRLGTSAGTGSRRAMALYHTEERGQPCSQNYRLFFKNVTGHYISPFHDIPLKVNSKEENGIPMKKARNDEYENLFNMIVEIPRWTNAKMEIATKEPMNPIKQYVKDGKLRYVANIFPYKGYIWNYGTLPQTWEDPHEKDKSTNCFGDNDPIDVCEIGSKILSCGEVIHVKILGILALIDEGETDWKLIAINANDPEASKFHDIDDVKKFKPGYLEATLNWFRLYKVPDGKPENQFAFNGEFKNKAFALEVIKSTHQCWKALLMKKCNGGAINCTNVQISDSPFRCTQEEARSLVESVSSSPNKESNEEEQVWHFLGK
# UniProt Q9GZN2: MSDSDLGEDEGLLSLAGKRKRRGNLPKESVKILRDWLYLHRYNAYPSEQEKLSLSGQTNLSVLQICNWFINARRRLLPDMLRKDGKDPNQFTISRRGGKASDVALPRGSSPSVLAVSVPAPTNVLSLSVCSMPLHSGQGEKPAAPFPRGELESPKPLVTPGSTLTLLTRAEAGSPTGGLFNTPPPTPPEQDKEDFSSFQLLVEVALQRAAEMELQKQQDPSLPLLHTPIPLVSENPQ
# UniProt Q9BXI6: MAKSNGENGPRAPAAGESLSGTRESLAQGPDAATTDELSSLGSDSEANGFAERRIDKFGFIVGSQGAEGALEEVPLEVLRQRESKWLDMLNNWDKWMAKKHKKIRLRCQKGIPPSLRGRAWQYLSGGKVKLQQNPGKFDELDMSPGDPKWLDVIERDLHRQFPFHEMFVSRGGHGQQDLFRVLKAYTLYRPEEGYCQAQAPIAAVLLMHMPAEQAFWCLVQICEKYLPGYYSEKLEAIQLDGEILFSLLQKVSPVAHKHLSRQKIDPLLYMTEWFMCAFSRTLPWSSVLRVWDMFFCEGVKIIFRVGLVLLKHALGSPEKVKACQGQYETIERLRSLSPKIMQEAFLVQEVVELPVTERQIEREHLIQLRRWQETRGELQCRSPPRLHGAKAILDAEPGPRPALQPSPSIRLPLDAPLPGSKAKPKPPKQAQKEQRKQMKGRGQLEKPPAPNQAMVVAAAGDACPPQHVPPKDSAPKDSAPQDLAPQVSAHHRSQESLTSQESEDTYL
# UniProt Q9H2J4: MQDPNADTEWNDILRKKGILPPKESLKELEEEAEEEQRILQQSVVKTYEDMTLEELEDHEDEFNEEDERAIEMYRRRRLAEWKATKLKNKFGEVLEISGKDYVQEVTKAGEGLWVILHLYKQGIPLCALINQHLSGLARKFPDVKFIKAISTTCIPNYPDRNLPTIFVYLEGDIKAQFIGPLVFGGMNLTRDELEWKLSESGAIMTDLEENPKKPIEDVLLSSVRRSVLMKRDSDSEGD
# UniProt Q9BYG3: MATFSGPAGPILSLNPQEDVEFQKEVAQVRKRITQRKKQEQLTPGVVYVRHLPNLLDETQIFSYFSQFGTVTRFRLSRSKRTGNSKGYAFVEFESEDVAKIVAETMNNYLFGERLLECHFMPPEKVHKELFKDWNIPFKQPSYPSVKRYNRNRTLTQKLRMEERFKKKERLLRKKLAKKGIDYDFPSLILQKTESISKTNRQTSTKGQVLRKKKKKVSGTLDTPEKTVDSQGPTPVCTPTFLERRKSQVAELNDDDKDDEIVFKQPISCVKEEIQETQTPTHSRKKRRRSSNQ
# UniProt Q9GZX9: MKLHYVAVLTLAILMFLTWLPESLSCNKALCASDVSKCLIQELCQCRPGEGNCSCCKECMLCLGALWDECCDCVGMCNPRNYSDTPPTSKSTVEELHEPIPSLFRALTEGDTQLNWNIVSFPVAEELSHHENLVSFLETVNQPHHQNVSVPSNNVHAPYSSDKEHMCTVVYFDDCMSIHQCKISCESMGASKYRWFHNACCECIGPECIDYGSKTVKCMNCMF
# UniProt Q9H1J1: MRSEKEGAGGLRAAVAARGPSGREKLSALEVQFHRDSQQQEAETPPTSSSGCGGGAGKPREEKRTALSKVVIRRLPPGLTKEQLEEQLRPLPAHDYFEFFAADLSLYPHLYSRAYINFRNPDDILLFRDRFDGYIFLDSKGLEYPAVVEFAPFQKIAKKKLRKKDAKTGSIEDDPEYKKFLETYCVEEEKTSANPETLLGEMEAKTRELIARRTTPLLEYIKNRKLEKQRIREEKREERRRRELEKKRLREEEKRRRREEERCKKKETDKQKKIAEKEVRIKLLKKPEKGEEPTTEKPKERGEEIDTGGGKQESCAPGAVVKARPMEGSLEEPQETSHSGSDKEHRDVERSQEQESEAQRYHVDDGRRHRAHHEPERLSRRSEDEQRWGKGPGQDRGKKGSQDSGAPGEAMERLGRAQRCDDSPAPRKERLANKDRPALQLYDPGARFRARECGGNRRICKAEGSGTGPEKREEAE
# UniProt Q9BYB4: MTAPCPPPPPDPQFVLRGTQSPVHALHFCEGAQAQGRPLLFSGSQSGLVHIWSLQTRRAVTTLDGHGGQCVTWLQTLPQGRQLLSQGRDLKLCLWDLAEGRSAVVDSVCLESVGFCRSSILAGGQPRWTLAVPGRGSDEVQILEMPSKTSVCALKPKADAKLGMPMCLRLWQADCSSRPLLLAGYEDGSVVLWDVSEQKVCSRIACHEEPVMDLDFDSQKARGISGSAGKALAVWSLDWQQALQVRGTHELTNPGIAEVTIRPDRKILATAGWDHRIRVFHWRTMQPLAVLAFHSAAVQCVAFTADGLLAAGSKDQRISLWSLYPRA
# UniProt Q9H0F7: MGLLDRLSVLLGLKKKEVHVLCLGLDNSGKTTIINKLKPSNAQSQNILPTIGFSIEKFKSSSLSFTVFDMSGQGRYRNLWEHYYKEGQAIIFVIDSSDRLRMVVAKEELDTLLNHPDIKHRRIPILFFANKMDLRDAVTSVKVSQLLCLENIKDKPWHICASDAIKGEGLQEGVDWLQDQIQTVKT
# UniProt Q9H2L5: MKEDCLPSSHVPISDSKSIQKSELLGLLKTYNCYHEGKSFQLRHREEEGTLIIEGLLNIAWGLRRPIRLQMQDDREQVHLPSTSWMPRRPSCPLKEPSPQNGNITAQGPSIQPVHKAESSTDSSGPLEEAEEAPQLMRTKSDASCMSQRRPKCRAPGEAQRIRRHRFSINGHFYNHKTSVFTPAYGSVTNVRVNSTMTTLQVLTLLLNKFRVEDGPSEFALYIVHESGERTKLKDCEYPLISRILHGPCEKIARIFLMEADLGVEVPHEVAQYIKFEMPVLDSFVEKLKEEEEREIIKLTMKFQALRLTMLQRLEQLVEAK
# UniProt Q9H190: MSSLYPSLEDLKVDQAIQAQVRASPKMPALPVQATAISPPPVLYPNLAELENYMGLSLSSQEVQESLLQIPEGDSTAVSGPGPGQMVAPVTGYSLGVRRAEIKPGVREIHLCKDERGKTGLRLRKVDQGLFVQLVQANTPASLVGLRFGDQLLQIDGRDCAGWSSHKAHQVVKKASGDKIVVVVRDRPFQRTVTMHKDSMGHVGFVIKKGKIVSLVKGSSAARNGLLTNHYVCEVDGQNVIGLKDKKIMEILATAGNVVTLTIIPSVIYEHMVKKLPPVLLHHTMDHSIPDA
# UniProt Q9C0B0: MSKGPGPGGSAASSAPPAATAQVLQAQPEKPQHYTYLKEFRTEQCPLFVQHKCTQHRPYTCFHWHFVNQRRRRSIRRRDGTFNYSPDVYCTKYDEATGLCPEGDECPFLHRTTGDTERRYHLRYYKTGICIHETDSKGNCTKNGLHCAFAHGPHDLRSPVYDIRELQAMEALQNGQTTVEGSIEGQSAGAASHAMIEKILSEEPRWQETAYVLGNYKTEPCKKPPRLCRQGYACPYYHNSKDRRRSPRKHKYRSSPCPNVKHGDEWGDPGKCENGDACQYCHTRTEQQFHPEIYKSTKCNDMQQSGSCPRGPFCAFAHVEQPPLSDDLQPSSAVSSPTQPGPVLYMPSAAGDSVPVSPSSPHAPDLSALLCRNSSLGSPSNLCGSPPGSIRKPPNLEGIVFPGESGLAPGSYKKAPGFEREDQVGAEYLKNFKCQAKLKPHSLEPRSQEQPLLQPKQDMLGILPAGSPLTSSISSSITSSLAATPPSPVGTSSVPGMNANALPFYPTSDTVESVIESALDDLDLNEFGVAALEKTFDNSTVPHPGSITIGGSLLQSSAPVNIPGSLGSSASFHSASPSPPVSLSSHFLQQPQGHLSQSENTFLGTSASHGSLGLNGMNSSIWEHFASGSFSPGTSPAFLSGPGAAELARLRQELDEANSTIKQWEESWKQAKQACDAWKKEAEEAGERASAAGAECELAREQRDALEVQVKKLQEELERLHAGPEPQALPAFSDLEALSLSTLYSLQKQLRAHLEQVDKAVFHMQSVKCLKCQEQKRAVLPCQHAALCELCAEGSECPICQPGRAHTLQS
# UniProt Q9H269: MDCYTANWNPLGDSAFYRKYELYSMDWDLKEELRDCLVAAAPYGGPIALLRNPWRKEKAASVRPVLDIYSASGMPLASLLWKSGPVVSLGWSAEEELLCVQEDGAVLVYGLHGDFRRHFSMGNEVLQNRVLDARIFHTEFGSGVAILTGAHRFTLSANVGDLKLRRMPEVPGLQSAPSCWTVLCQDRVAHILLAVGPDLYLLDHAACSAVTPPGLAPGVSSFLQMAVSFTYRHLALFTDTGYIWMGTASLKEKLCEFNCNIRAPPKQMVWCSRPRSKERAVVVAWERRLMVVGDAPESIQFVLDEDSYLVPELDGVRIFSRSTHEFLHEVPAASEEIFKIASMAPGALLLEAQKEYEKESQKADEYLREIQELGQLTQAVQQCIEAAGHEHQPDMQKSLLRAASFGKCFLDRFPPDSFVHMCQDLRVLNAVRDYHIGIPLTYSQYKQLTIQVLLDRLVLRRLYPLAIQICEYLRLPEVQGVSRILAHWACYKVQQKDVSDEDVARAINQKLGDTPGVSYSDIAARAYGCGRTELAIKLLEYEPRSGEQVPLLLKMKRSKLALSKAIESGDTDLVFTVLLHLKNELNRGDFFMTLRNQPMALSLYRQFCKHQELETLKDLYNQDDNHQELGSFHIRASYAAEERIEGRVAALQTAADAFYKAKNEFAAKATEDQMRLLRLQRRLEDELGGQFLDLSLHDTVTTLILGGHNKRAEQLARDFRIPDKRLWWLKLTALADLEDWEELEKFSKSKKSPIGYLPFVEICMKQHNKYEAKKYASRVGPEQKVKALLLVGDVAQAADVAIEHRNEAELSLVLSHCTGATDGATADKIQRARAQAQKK
# UniProt Q9BWV3: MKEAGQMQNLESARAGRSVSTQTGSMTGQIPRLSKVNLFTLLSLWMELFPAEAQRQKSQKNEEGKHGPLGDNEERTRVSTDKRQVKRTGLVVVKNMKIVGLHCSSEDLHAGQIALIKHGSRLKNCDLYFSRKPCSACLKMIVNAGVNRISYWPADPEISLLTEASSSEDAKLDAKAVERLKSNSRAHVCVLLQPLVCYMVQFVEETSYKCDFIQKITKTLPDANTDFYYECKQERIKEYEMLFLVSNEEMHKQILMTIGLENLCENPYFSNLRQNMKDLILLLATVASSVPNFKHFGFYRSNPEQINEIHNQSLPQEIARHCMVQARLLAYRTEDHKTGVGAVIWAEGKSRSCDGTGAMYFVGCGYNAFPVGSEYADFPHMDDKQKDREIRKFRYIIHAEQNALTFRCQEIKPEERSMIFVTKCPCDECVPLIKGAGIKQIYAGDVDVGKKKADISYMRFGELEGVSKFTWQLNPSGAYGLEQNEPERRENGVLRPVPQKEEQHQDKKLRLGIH
# UniProt Q9BWP8: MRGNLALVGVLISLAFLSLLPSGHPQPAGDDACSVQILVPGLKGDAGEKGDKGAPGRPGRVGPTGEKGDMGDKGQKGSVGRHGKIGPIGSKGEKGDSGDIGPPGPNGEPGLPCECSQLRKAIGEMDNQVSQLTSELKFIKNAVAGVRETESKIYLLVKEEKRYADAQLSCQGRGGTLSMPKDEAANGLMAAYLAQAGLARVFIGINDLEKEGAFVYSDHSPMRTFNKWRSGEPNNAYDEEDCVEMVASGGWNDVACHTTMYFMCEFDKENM
# UniProt Q9H479: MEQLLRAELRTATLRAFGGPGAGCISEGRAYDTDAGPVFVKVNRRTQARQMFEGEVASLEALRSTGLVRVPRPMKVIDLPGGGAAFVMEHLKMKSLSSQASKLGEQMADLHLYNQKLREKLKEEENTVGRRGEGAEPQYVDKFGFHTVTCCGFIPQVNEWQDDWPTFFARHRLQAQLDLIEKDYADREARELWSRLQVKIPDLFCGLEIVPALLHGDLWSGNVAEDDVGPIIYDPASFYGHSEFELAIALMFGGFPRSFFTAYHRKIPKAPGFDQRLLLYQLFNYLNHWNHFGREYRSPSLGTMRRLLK
# This is one part of the list. Small differences around the control level are noise.
# Compound: CN[C@@H]1C[C@H]2O[C@@](C)([C@@H]1OC)n1c3ccccc3c3c4c(c5c6ccccc6n2c5c31)C(=O)NC4 [staurosporine]
# Experiment: log2 fold change of tryptic peptide abundance, ligand vs vehicle (limited proteolysis) (log2 ratio); higher = more trypsin-susceptible (destabilized)
# Settings: ligand concentration: 20 uM; sample: K562 cleared lysate; digestion: 4 min, 22 C (HT-PELSA RT4min, Orbitrap Astral)
row,Target,log2 fold change
1,"MKRN2 (peptide sequence: QLSSQGTVR, peptide start residue: 363) (UniProt Q9H000)",0.509
2,"CARD11 (peptide sequence: TETIIYSR, peptide start residue: 1020) (UniProt Q9BXL7)",-0.672
3,"UniProt Q9H0R8 (peptide sequence: KYPDRVPVIVEK, peptide start residue: 24)",0.213
4,"PPA2 (peptide sequence: EENGIPMKK, peptide start residue: 74) (UniProt Q9H2U2)",0.391
5,"SORBS1 (peptide sequence: SKSEMSYIDGEK, peptide start residue: 479) (UniProt Q9BX66)",-0.518
6,"UniProt Q9H0K1 (peptide sequence: QRRPSTIAEQTVAK, peptide start residue: 354)",0.853
7,"UniProt Q9BXP5 (peptide sequence: HAEKIEEVKK, peptide start residue: 736)",0.346
8,"UniProt Q9BZR9 (peptide sequence: FCSENAAQALHLGER, peptide start residue: 261)",-0.526
9,"UniProt Q9GZN2 (peptide sequence: DGKDPNQFTISR, peptide start residue: 230)",-0.181
10,"TBC1D10A (peptide sequence: WLDMLNNWDKWMAK, peptide start residue: 86) (UniProt Q9BXI6)",0.324
11,"PDCL3 (peptide sequence: MQDPNADTEWNDILR, peptide start residue: 1) (UniProt Q9H2J4)",-0.241
12,"FAM49A (peptide sequence: AWNAVCPLVVR, peptide start residue: 78) (UniProt Q9H0Q0)",0.141
13,"UniProt Q9BYG3 (peptide sequence: VSGTLDTPEK, peptide start residue: 217)",-0.152
14,"CDC42EP4 (peptide sequence: SMGSHTTR, peptide start residue: 298) (UniProt Q9H3Q1)",0.443
15,"UniProt Q9C029 (peptide sequence: QLAAVATLLR, peptide start residue: 95)",0.318
16,"TWSG1 (peptide sequence: STVEELHEPIPSLFR, peptide start residue: 91) (UniProt Q9GZX9)",-0.0524
17,"MRPL1 (peptide sequence: EVKNEESEKEDA, peptide start residue: 314) (UniProt Q9BYD6)",-0.297
18,"CHID1 (peptide sequence: AESVVLEHR, peptide start residue: 57) (UniProt Q9BWS9)",0.661
19,"UPF3A (peptide sequence: AHHEPER, peptide start residue: 371) (UniProt Q9H1J1)",0.456

row,Target,log2 fold change
1,"RPAP1 (peptide sequence: LLAQLDPSLVAFLR, peptide start residue: 250) (UniProt Q9BWH6)",-0.192
2,"UniProt Q9BYV8 (peptide sequence: IIILYDDDER, peptide start residue: 221)",-0.247
3,"GNB1L (peptide sequence: ILATAGWDHR, peptide start residue: 267) (UniProt Q9BYB4)",-0.418
4,"UniProt Q9H3P2 (peptide sequence: ALILGFMAGSR, peptide start residue: 457)",-0.0987
5,"OSBPL11 (peptide sequence: VVLPTFILEKR, peptide start residue: 386) (UniProt Q9BXB4)",0.847
6,"ARL6 (peptide sequence: EGQAIIFVIDSSDRLR, peptide start residue: 86) (UniProt Q9H0F7)",0.0767
7,"FAM107B (peptide sequence: KSDLEIELLKR, peptide start residue: 77) (UniProt Q9H098)",0.405
8,"UniProt Q9H2L5 (peptide sequence: LKEEEER, peptide start residue: 351)",0.132
9,"UniProt Q9H190 (peptide sequence: FGDQLLQIDGR, peptide start residue: 148)",-0.173
10,"UNK (peptide sequence: SQEQPLLQPK, peptide start residue: 447) (UniProt Q9C0B0)",-0.12
11,"UniProt Q9BY27 (peptide sequence: HQEAQQACRPHNLPVVQAAQQR, peptide start residue: 100)",0.551
12,"UniProt Q9H0X4 (peptide sequence: KPIFGRYK, peptide start residue: 372)",-0.0829
13,"NSD3 (peptide sequence: FQVGDLVWSK, peptide start residue: 268) (UniProt Q9BZ95)",0.3
14,"VPS16 (peptide sequence: ASYAAEER, peptide start residue: 636) (UniProt Q9H269)",-0.161
15,"CDADC1 (peptide sequence: HGPLGDNEER, peptide start residue: 66) (UniProt Q9BWV3)",-0.21
16,"COLEC11 (peptide sequence: YADAQLSCQGR, peptide start residue: 163) (UniProt Q9BWP8)",0.312
17,"FBXL15 (peptide sequence: SLVQLHLAGLRR, peptide start residue: 53) (UniProt Q9H469)",0.437
18,"FN3K (peptide sequence: LKEEENTVGR, peptide start residue: 121) (UniProt Q9H479)",0.187

# As entered above.
# log2 fold change, FAM107B (peptide sequence: KSDLEIELLKR, peptide start residue: 77) (UniProt Q9H098) is entered as 0.405
# log2 fold change, NSD3 (peptide sequence: FQVGDLVWSK, peptide start residue: 268) (UniProt Q9BZ95) is entered as 0.3
